From article PMC5703909, “Bactofilin-mediated organization of the ParABS chromosome segregation system in Myxococcus xanthus” (Nature Communications, 2017)
No constants are given. Whether binding was seen depends on the method and setting. Binding seen in cells or lysates may run through a third protein. Some entries that bind do so weakly or less than the wild type. Sequences can lack the tags named with a protein.

Tests used:
[1] = molecular target: T1, His6-PadC_(Δ1-239) (M. xanthus) (UniProt Q1D3H3); assay: pull-down; Ni-NTA agarose beads pre-incubated with 1.5 mg purified His6-PadC(Δ1-239), mixed with cleared lysate of paraformaldehyde-treated DK1622 cells, overnight at 4 °C, buffer S; immunoblot with anti-BacP or anti-BacO; only the target purified
T1 sequence: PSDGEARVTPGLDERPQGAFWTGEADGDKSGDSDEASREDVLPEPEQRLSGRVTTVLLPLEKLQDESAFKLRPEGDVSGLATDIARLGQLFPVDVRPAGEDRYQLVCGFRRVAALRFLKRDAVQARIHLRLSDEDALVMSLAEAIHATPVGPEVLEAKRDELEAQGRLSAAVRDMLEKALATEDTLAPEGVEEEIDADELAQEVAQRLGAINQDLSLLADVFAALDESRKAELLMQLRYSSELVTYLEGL

BacN-HA (M. xanthus) = molecular target: T2, BacN-HA (M. xanthus) (UniProt Q1D3H0); assay: co-IP; anti-HA-tag mAb magnetic beads, 12 h at 4 °C, lysates of cells treated with 0.6% paraformaldehyde; Co-IP buffer (50 mM Tris/HCl pH 7.6, 150 mM NaCl, 0.1% Triton X-100); immunoblot with anti-HA, anti-BacP, anti-BacO
T2 sequence: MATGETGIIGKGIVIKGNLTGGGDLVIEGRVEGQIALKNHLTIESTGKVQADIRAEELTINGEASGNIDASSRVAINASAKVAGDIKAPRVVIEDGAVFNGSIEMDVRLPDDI

B1: BacP (protein, UniProt Q1D3H2 1-240)
chain: MATAKELSASSNVDNTVVGPSILISGRLTGDEDLTVRGRVEGELTLSRTLIVEPSGVVKANVAVKNAIVSGVVVGNINATESVELTREGRMVGDIRAPRVIIVDGASFRGRVDMGDVEPGRLPAERPAVVRPTAVTRPTATPARPTIPAARPMPPPPPSRPTPPPPPARPSAPPAVTRPSAPITRPGLGGLGSKPLPPPPPTRVERAEPQAGQAGSAEPPTPVLVGAGAKKKVVVKKKTR
Question: With B1 as the binder, how does the binding [1] read?
Answer: binds

Question: And the binding (BacN-HA (M. xanthus))?
Answer: binds

B2: BacO (protein, UniProt Q1D3H1 1-126)
chain: MSFTPRTARHTPFERRTTLMANTVIGSSIVIDGEISGDEDLVIQGTVKGKISLKESLYVEGSGVVEADIETQNVEIAGRVTGNIVASDKVELKTDCRVVGDIKAPRILIADGASFKGNVDMDMKER
Question: Which results are given for B2?
Answer: binding [1]: binds; binding (BacN-HA (M. xanthus)): binds
